Record: PubChem BioAssay AID743454 (Peter MacCallum Cancer Centre, 2014)

Purpose: 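Search for knock-downs that restore vorinostat killing in resistant colon cancer cells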 (primary screen)
Cells: human HCT116-VR colon cancer cells, selected for vorinostat resistance
Reagent: siRNA pool against human genes, 40 nM siRNA pool
Duration: vorinostat for 24 h, read-out about 72 h after transfection
Conditions: vorinostat at 2.5 µM final
Measured: 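Two measures, CellTiter-Fluor viability and luminescent caspase 3/7 activity, each as fold change against same-plate mock wells, mean of duplicates, then screen-wide robust z-score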
Direction: viability robust z-score: higher = more viable cells than screen typical; caspase robust z-score: higher = more caspase 3/7 activity than screen typical
Call rule: 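a knock-down is a hit when classed RV1 or RV2 for lowered viability, or CA1 or CA2 for caspase activation; those lethal without drug were dropped; hits were retested singly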
Shown is a random part of about 18,000 deposited reagents. 450 of them (2.5%) count as active. 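Single biological run; no consistent viability z cut-off exists, so the class columns, not z-scores, define the calls.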

After knock-down of TSHZ3, the screen gave viability hit class no change; caspase hit class no change; viability robust z-score -0.42; caspase robust z-score 2.48; inactive.
For NEU3, the values are viability hit class no change; caspase hit class no change; viability robust z-score -1.14; caspase robust z-score -0.16; inactive.
Silencing of PSME3 resulted in: viability hit class no change; caspase hit class no change; viability robust z-score -1.23; caspase robust z-score 0.41; inactive.
After knock-down of PANK2, the record shows viability hit class no change; caspase hit class no change; viability robust z-score 0.73; caspase robust z-score 3.87; inactive.
Silencing of KAT5 came out at: viability hit class no change; caspase hit class no change; viability robust z-score -1.05; caspase robust z-score -0.54; inactive.
For CNTNAP1, the entry reads viability hit class no change; caspase hit class no change; viability robust z-score -0.77; caspase robust z-score 0.92; inactive.
After knock-down of IRAK2, the screen gave viability hit class no change; caspase hit class no change; viability robust z-score 0.17; caspase robust z-score 1.02; inactive.
Against CARD19 the deposit lists viability hit class no change; caspase hit class no change; viability robust z-score -0.23; caspase robust z-score 1.48; inactive.
After knock-down of SS18L2 the results were viability hit class no change; caspase hit class no change; viability robust z-score -3.17; caspase robust z-score 5.77; inactive.
After knock-down of HLA-A the results were viability hit class no change; caspase hit class no change; viability robust z-score 1.23; caspase robust z-score 0.21; inactive.
Knock-down of RGS7BP came out at: viability hit class no change; caspase hit class no change; viability robust z-score 0.02; caspase robust z-score 2.67; inactive.
SRSF8 showed viability hit class no change; caspase hit class no change; viability robust z-score 0.23; caspase robust z-score -0.39; inactive.
Knock-down of FGFR4 resulted in: viability hit class no change; caspase hit class no change; viability robust z-score 0.52; caspase robust z-score 1.7; inactive.
Against AP3M1, the entry reads viability hit class no change; caspase hit class no change; viability robust z-score 1.96; caspase robust z-score -0.2; inactive.
RAB5A gave viability hit class no change; caspase hit class no change; viability robust z-score -0.64; caspase robust z-score 2.02; inactive.
Against PADI4, the entry reads viability hit class no change; caspase hit class no change; viability robust z-score -0.4; caspase robust z-score -0.5; inactive.
Silencing of PTPN11 came out at: viability hit class no change; caspase hit class no change; viability robust z-score 1.06; caspase robust z-score 0.94; inactive.
Silencing of PLEKHG3 gave: viability hit class no change; caspase hit class no change; viability robust z-score -0.89; caspase robust z-score -1.12; inactive.
With knock-down of SLC6A8, the screen gave viability hit class no change; caspase hit class no change; viability robust z-score -0.52; caspase robust z-score 0.86; inactive.
MYO19 scored viability hit class no change; caspase hit class no change; viability robust z-score 0.5; caspase robust z-score -0.3; inactive.
With knock-down of DGKA, the record shows viability hit class no change; caspase hit class no change; viability robust z-score 0.78; caspase robust z-score -0.5; inactive.

Part of the list above, reduced to “viability robust z-score”:
PANK2 = 0.73
KAT5 = -1.05
